{"source": "PubChem BioAssay AID1259280 (Sanger Institute, 2017)", "aim": "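Essential kinases and drug-combination synergies in SNU407 cells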 (primary screen)", "cells": "human SNU407 colorectal cancer cells", "knock-down reagent": "siRNA pool against human genes", "challenge": "anchor drugs BYL719 at 1 µM, cetuximab at 5 µg/ml or trametinib at 10 nM, or DMSO vehicle alone; exposure time not given", "detection": "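Viability relative to non-targeting control siRNA, expressed as robust z-score, plus a synergy score for each of the three anchor drugs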", "direction": "viability z-score, no drug: higher = more cells survive the knock-down", "active means": "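Essential calls require a no-drug robust viability z-score under -3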", "meaning of the calls": "active = essential (knock-down alone kills cells); inactive = no change without drug", "note": "The deposit covers 794 reagents; this is an unselected part. In the full data, 12 (1.5%) were called active. 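Calls cover knock-down without drug only; synergy scores stand apart, values above 0.15 being treated as synergy.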 A number with no mark means an inactive call. Not all columns of the deposit are shown. The record does not give: the amount of reagent, the time to read-out."}
{"target": "STK36 (GeneID 27148)", "viability z-score, no drug": 0.901}
{"target": "RPS6KA6 (GeneID 27330)", "viability z-score, no drug": -0.341}
{"target": "PAPSS1 (GeneID 9061)", "viability z-score, no drug": 0.452}
{"target": "MYLK (GeneID 4638)", "viability z-score, no drug": -0.794}
{"target": "NUP107 (GeneID 57122)", "viability z-score, no drug": -2.62}
{"target": "MAPK12 (GeneID 6300)", "viability z-score, no drug": 0.901}
{"target": "HASPIN (GeneID 83903)", "viability z-score, no drug": 0.285}
{"target": "ACO1 (GeneID 48)", "viability z-score, no drug": -0.722}
{"target": "CDKN2C (GeneID 1031)", "viability z-score, no drug": -0.605}
{"target": "CKS2 (GeneID 1164)", "viability z-score, no drug": 0.63}
{"target": "TAOK3 (GeneID 51347)", "viability z-score, no drug": 0.901}
{"target": "CDKN1C (GeneID 1028)", "viability z-score, no drug": 0.857}
{"target": "MAP3K7 (GeneID 6885)", "viability z-score, no drug": 0.901}
{"target": "EPHA6 (GeneID 285220)", "viability z-score, no drug": -2.25}
{"target": "ADCK1 (GeneID 57143)", "viability z-score, no drug": 0.901}
{"target": "SRPK3 (GeneID 26576)", "viability z-score, no drug": 0.901}
{"target": "ULK4 (GeneID 54986)", "viability z-score, no drug": -1.21}
{"target": "NEK10 (GeneID 152110)", "viability z-score, no drug": 0.461}
{"target": "NUP98 (GeneID 4928)", "viability z-score, no drug": "-3.3 (active)"}
{"target": "CDK4 (GeneID 1019)", "viability z-score, no drug": 0.901}
{"target": "STK33 (GeneID 65975)", "viability z-score, no drug": 0.774}
{"target": "ROCK1 (GeneID 6093)", "viability z-score, no drug": 0.901}
{"target": "NME2 (GeneID 4831)", "viability z-score, no drug": 0.901}

3 entries already listed, arranged by “viability z-score, no drug”, descending.
{"target": "HASPIN (GeneID 83903)", "viability z-score, no drug": 0.285}
{"target": "CDKN2C (GeneID 1031)", "viability z-score, no drug": -0.605}
{"target": "ACO1 (GeneID 48)", "viability z-score, no drug": -0.722}

The list goes on:
{"target": "ATR (GeneID 545)", "viability z-score, no drug": 0.403}
{"target": "PDGFRA (GeneID 5156)", "viability z-score, no drug": 0.901}
{"target": "MKNK1 (GeneID 8569)", "viability z-score, no drug": 0.901}
{"target": "CLSPN (GeneID 63967)", "viability z-score, no drug": -1.06}
{"target": "EPHB3 (GeneID 2049)", "viability z-score, no drug": -1.11}
{"target": "PRKCZ (GeneID 5590)", "viability z-score, no drug": -1.23}
{"target": "MAST3 (GeneID 23031)", "viability z-score, no drug": 0.777}
{"target": "MAPK14 (GeneID 1432)", "viability z-score, no drug": -0.0718}
{"target": "SHPK (GeneID 23729)", "viability z-score, no drug": 0.901}
{"target": "TAF1L (GeneID 138474)", "viability z-score, no drug": 0.461}
{"target": "TRPM6 (GeneID 140803)", "viability z-score, no drug": 0.901}
{"target": "TRPM7 (GeneID 54822)", "viability z-score, no drug": -0.937}
{"target": "TJP2 (GeneID 9414)", "viability z-score, no drug": 0.901}
